These are yes or no findings as the source states them, for the method shown. In cells and extracts the contact can be indirect. Some results given as binding are weak or reduced against the parent protein; the word gives no strength.
Biological target: hCCR7-smBiT (human CC chemokine receptor type 7 fused to smBiT) (human) (UniProt P32248)
Experiment: split reporter; HEK293T cells co-transfected with hCCR7-smBiT and LgBiT-β-arrestin2 (R393E, R395E); HBSS with 20 mM HEPES; 30 min preincubation with small-molecule antagonists or vehicle; luminescence after stimulation with CCL19 (18 nM, EC25)

Protein sequences, listed by entry. Tags and fused reporters are not part of them. Lines headed by an entry give the natural chain unless they say otherwise; changes in a name come on top. Residues count along the entry.
UniProt P32248, residues 25-378: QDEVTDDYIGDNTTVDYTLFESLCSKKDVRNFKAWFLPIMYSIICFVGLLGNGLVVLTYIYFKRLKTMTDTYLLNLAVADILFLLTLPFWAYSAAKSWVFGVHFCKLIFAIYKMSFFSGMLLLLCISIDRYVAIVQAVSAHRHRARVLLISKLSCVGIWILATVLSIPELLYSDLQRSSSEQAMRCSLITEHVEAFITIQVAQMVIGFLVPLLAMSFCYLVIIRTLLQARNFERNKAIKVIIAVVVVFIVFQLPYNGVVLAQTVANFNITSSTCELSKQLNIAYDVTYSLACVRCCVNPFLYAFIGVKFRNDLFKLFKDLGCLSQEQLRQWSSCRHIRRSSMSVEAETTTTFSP
UniProt P32121: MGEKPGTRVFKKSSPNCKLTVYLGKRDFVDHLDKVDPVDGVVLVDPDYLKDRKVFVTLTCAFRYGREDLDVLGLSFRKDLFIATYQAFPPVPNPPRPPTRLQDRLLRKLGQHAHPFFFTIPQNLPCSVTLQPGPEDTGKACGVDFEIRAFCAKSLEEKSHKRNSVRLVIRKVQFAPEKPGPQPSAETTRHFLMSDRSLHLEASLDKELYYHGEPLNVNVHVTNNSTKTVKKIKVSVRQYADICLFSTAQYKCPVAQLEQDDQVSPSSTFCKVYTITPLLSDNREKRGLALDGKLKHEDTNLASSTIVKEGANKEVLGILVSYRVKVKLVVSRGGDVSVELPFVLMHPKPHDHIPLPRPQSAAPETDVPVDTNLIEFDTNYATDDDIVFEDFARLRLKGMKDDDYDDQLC

“LgBiT-β-arrestin2 mutant (R393E, R395E) (from UniProt P32121 1-409)” was tested, and the binding was “binds”.

Reference: article PMC11873976
